Test results as given in PubChem BioAssay AID540256 (National Center for Advancing Translational Sciences (NCATS), 2011).
About 3,700 (1.2%) of roughly 300,000 compounds were called active. The inconclusive results got no clear call from the source; some entries with a clear call stand among them for comparison. The call rests on the fitted dose curve; tested in HEK293 cells. Potencies beside an inconclusive call are fits to weak or partial responses and may not hold up.

Experiment: qHTS for Inhibitors of binding or entry into cells for Lassa Virus; further: nearly all actives have a fitted effect of over 50% in size
Settings: Lassa virus pseudotype entry inhibition, cell reporter; activity change, negative = inhibition: at 37.9 µM (top of the series) unless noted
On the % scale 0 is the no-effect control and ±100 the full control effect; potency means the concentration at half of the fitted maximal effect.

Structure (SMILES)	Potency	activity change, negative = inhibition
CCOC(=O)/C=C/C(=O)Nc1ccc(S(=O)(=O)N2CCCCCC2)cc1	inconclusive: 22.4 µM [inhibitor, single point]	–
CCC(=O)N1CCc2cc(S(=O)(=O)CCC(=O)NCc3cccs3)ccc21	inconclusive: 11.2 µM [inhibitor, partial curve]	–
CCOC(=O)NNc1ccc2nonc2c1[N+](=O)[O-]	inconclusive: 22.4 µM [inhibitor, single point]	–
CCN(CC)S(=O)(=O)c1ccc2c(c1)c(=O)c(C(=O)NCc1ccccc1)cn2C	inconclusive: 20 µM [inhibitor, partial curve, poor fit]	–
Cc1nn(C)c(C(=O)Nc2ccn(C34CC5CC(CC(C5)C3)C4)n2)c1[N+](=O)[O-]	inconclusive: 12.6 µM [inhibitor, partial curve, poor fit]	–
COc1cc2c(cc1O)[C@H](Cc1ccc(Oc3cc(C[C@@H]4NCCc5cc(OC)c(O)cc54)ccc3O)cc1)NCC2	–	inactive: 3.88%
CN(CC(=O)Nc1ccccc1Cl)C(=O)COC(=O)Cc1ccc(F)cc1	–	inactive: 5.22%
CCOc1cc(-c2noc(CCCC(N)=O)n2)cc(Br)c1OC	–	inactive: -1.94%
C=CCc1cccc(/C=N/NC(=O)CCC(=O)Nc2ccc(F)cc2)c1O	inconclusive: 16.4 µM [inhibitor, partial curve, poor fit]	–
CCOC(=O)COc1ccc2c(C#N)c3ccccn3c2c1	–	inactive: -0.666%
O=C(Nc1ccc(Cl)cc1)Nc1nnc(-c2ccncc2)s1	active: 3.98 µM	–
COc1ccc(OCc2nc(N)nc(Nc3ccc(C)cc3)n2)cc1	–	inactive: 10.1%
CCOc1ccc2nc(NC(=O)CS(=O)(=O)c3ccc(Cl)cc3)sc2c1	inconclusive: 35.5 µM [inhibitor, single point]	–
O=C(N/N=C\c1cn(-c2ccccc2)nc1-c1ccccc1)c1ccc(Br)o1	inconclusive: 14.1 µM [inhibitor, single point]	–
CC(NC(=O)c1ccc(C(C)(C)C)cc1)C(=O)O (configuration not stated)	inconclusive: 2.31 µM [inhibitor, partial curve]	–
O=C(NC1CCCN(Cc2ccc(Cl)cc2)C1)c1cnc2ccccn2c1=O (configuration not stated)	inconclusive: 35.5 µM [inhibitor, single point]	–
C=CCC1(CC)C(=O)NC(=S)NC1=O	inconclusive: 1.26 µM [activator, partial curve, poor fit]	–
CCN(CCCCN1C(=O)c2ccccc2C1=O)c1ccc2c(c1)C(=O)N(C)C2=O	inconclusive: 1.03 µM [activator, full curve, poor fit]	–
CC1CN(CC(O)COc2ccc(C(=O)c3ccccc3)cc2)CC(C)O1 (configuration not stated)	inconclusive: 35.5 µM [inhibitor, partial curve, poor fit]	–
CCOC(=O)c1cnc(-n2nc(C)cc2C)nc1NNc1nc(-c2ccccc2)cc(-c2ccccc2)n1	inconclusive: 15.8 µM [inhibitor, single point]	–
O=C(NCc1csc(-c2cccs2)n1)C1CCCCC1	inconclusive: 35.5 µM [inhibitor, single point]	–

Grouped by structure, the compounds so far with a thiophene ring, fused or not (2)
Structure (SMILES)	Potency	activity change, negative = inhibition
CCC(=O)N1CCc2cc(S(=O)(=O)CCC(=O)NCc3cccs3)ccc21	inconclusive: 11.2 µM [inhibitor, partial curve]	–
O=C(NCc1csc(-c2cccs2)n1)C1CCCCC1	inconclusive: 35.5 µM [inhibitor, single point]	–

Remaining list, next part:

Structure (SMILES)	Potency	activity change, negative = inhibition
CCN(CC)C(=O)C1CCN(S(=O)(=O)c2ccc3c(c2)CCCN3C(=O)C2CCC2)CC1	inconclusive: 1.12 µM [inhibitor, full curve, poor fit]	–
O=[N+]([O-])c1ccc(S(=O)(=O)c2cccc(C(F)(F)F)c2)nc1	inconclusive: 20 µM [inhibitor, single point]	–
CC(=O)O[C@]1(C(C)=O)CC[C@H]2[C@@H]3C=CC4=CC(=O)C=C[C@]4(C)[C@H]3CC[C@@]21C	inconclusive: 0.708 µM [activator, single point]	–
CCOC(=O)c1ccc(NC(=O)C2CCCN(c3ccc(Sc4ccc(C)cc4)nn3)C2)cc1 (configuration not stated)	active: 6.31 µM	–
Cn1nc(C(=O)NCc2ccco2)c2ccccc2c1=O	inconclusive: 35.5 µM [activator, single point]	–
Cn1c(=NC(=O)c2ccc3c(c2)OCCO3)sc2cc(S(C)(=O)=O)ccc21	inconclusive: 6.31 µM [inhibitor, single point]	–
N/C(=N\OC(=O)CCCN1C(=O)c2ccccc2C1=O)c1ccc(Cl)cc1	–	inactive: 0.452%
Cc1ccc(Oc2ccc(NC(=O)c3ccco3)cc2)cc1	inconclusive: 0.326 µM [activator, full curve, poor fit]	–
Cc1ccc(C)c(Oc2ccc(S(=O)(=O)N3CCN(C)CC3)cn2)c1	inconclusive: 1.26 µM [activator, partial curve]	–
Cc1ccc(-n2nnnc2C(=Cc2ccc(N(C)C)cc2)c2nnnn2-c2ccc(C)cc2)cc1	inconclusive: 0.206 µM [inhibitor, full curve]	–
OC(COc1ccccc1)Cn1c2ccccc2c2ccccc21 (configuration not stated)	–	inactive: 0.0636%
C=CCN(c1ccc(C(=O)NCCc2ccccc2)cc1)S(C)(=O)=O	–	inactive: 9.22%
Cc1ccc(Oc2ccc(-c3nc(N)nc(N)n3)cc2)cc1C	inconclusive: 23.1 µM [inhibitor, single point]	–
CN(Cc1ccccc1)C(=O)COC(=O)c1ccccc1Nc1ccccc1	inconclusive: 35.5 µM [inhibitor, single point]	–
Cc1ccc2nc(N/N=C/c3ccccc3C#N)nc(-c3ccccc3)c2c1	inconclusive: 3.98 µM [inhibitor, partial curve, poor fit]	–
COc1cccc(OCCOc2cccc(/C=N/n3cnnc3)c2)c1	inconclusive: 29.1 µM [inhibitor, single point]	–
CCN(CC)CCn1c(NCc2nc3ccccc3n2Cc2ccccc2)nc2ccccc21	inconclusive: 29.1 µM [inhibitor, single point]	–
COC(=O)c1nc2n(n1)C(c1cc(OC)ccc1OC)C(C(=O)OC1CCCCC1)=C(C)N2 (configuration not stated)	inconclusive: 8.2 µM [inhibitor, partial curve]	–
O=Cc1cn(Cc2ccccc2F)c2ccccc12	inconclusive: 4.61 µM [inhibitor, full curve]	–
CC(=O)c1cn(CC(=O)NCc2ccc3c(c2)OCO3)c2ccccc12	–	inactive: -14.3%
Cn1c(=O)nc2n(-c3ccc(Cl)c(Cl)c3)c3cc(Cl)ccc3cc-2c1=O	–	inactive: 19.1% [at 46.1 µM]
